# Results: the supplement of paper PMC8728848
# The other results are listed elsewhere or left out.
# B1: AntigenI/IIA3VP1 (Streptococcus mutans), C9E3B4 (protein)
# chain: AANEADYQAKLTAYQTELARVQKANADAKAAYEAAVAANNAANAALTAENTAIKKRNADAKADYEAKLAKYQADLAKYQKDLADYPVKLKAYEDEQASIKAALAELEKHKNEDGNLTEPSAQNLVYDLEPNANLSLTTDGKFLKASAVDDAFSKSTSKAKYDQKILQLDDLDITNLEQSNDVASSMELYGNFGDKAGWSTTVSNNSQVKWGSVLLERGQSATATYTNLQNSYYNGKKISKIVYKYTVDPKSKFQGQKVWLGIFTDPTLGVFASAYTGQVEKNTSIFIKNEFTFYDEDGKPINFDNALLSVASLNREHNSIEMAKDYSGKFVKISGSSIGEKNGMIYATDTLNFKQGEGGSRWTMYKNSQAGSGWDSSDAPNSWYGAGAIKMSGPNNYVTVGATSATNVMPVSDMPVVPGKDNTDGKKPNIWYSLNGKIRAVNVPKVTKEKPTPPVKPTAPTKPTYETEKPLKPAPVAPNYEKEPTPPTRLEHHHHHH
# How the values were obtained:
# Assay in all cases: glycan array binding signal (z-score within array); higher = stronger binding
# Conditions in all cases: glycan notation: IUPAC condensed, linker removed
# [1] = target: Gal(b1-4)GlcNAc(b1-2)Man(a1-3)[Gal(b1-4)GlcNAc(b1-2)Man(a1-6)]Man(b1-4)GlcNAc(b1-4)[Fuc(a1-6)]GlcNAc
# Outline: (§1)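 The Consortium for Functional Glycomics database supplied 3228 glycan arrays, of which those lacking an available protein sequence were dropped. The binding signal, a within-array Z-score, was averaged across arrays of the same protein sequence and across linkers. Negative scores can be read as non-binding.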
# [2] = target: Gal(b1-4)GlcNAc(b1-2)Man(a1-3)[Gal(b1-4)GlcNAc(b1-2)Man(a1-6)][Gal(b1-4)GlcNAc(b1-4)]Man(b1-4)GlcNAc(b1-4)[Fuc(a1-6)]GlcNAc
# Outline: as §1
# [3] = target: Gal(b1-4)GlcNAc(b1-2)Man(a1-3)[Gal(b1-4)GlcNAc(b1-2)Man(a1-6)][GlcNAc(b1-4)]Man(b1-4)GlcNAc(b1-4)[Fuc(a1-6)]GlcNAc
# Outline: as §1
# [4] = target: Gal(b1-4)GlcNAc(b1-2)Man(a1-3)[GlcNAc(b1-2)Man(a1-6)]Man(b1-4)GlcNAc(b1-4)GlcNAc
# Outline: as §1
# [5] = target: Gal(b1-4)GlcNAc(b1-2)Man(a1-3)[GlcNAc(b1-4)][Gal(b1-4)GlcNAc(b1-2)Man(a1-6)]Man(b1-4)GlcNAc(b1-4)GlcNAc
# Outline: as §1
# [6] = target: Gal(b1-4)GlcNAc(b1-2)Man(a1-3)[Man(a1-6)]Man(b1-4)GlcNAc(b1-4)GlcNAc
# Outline: as §1
# [7] = target: Gal(b1-4)GlcNAc(b1-2)Man(a1-6)Man(b1-4)GlcNAc(b1-4)GlcNAc
# Outline: as §1
# [8] = target: Gal(b1-4)GlcNAc(b1-2)Man(a1-6)[GlcNAc(b1-2)Man(a1-3)]Man(b1-4)GlcNAc(b1-4)GlcNAc
# Outline: as §1
# [9] = target: Gal(b1-4)GlcNAc(b1-2)Man(a1-6)[Man(a1-3)]Man(b1-4)GlcNAc(b1-4)GlcNAc
# Outline: as §1
# [10] = target: Gal(b1-4)GlcNAc(b1-2)[Gal(b1-4)GlcNAc(b1-4)]Man(a1-3)[Gal(b1-4)GlcNAc(b1-2)Man(a1-6)]Man(b1-4)GlcNAc(b1-4)GlcNAc
# Outline: as §1
# [11] = target: Gal(b1-4)GlcNAc(b1-2)[Gal(b1-4)GlcNAc(b1-4)]Man(a1-3)[Gal(b1-4)GlcNAc(b1-2)[Gal(b1-4)GlcNAc(b1-6)]Man(a1-6)]Man(b1-4)GlcNAc(b1-4)GlcNAc
# Outline: as §1
# [12] = target: Gal(b1-4)GlcNAc(b1-2)[Gal(b1-4)GlcNAc(b1-4)]Man(a1-3)[GlcNAc(b1-4)][Gal(b1-4)GlcNAc(b1-2)Man(a1-6)]Man(b1-4)GlcNAc(b1-4)GlcNAc
# Outline: as §1
# [13] = target: Gal(b1-4)GlcNAc(b1-2)[Gal(b1-4)GlcNAc(b1-4)]Man(a1-3)[GlcNAc(b1-4)][Gal(b1-4)GlcNAc(b1-2)[Gal(b1-4)GlcNAc(b1-6)]Man(a1-6)]Man(b1-4)GlcNAc(b1-4)GlcNAc
# Outline: as §1
# [14] = target: Gal(b1-4)GlcNAc(b1-2)[Gal(b1-4)GlcNAc(b1-6)]Man(a1-6)[Gal(b1-4)GlcNAc(b1-2)Man(a1-3)]Man(b1-4)GlcNAc(b1-4)GlcNAc
# Outline: as §1
# [15] = target: Gal(b1-4)GlcNAc(b1-2)[Gal(b1-4)GlcNAc(b1-6)]Man(a1-6)[Gal(b1-4)GlcNAc(b1-2)Man(a1-3)]Man(b1-4)GlcNAc(b1-4)[Fuc(a1-6)]GlcNAc
# Outline: as §1
# [16] = target: Gal(b1-4)GlcNAc(b1-2)[Gal(b1-4)GlcNAc(b1-6)]Man(a1-6)[GlcNAc(b1-4)][Gal(b1-4)GlcNAc(b1-2)Man(a1-3)]Man(b1-4)GlcNAc(b1-4)GlcNAc
# Outline: as §1
# [17] = target: Gal(b1-4)GlcNAc(b1-2)[Gal(b1-4)GlcNAc(b1-6)]Man(a1-6)[GlcNAc(b1-4)][Gal(b1-4)GlcNAc(b1-2)[Gal(b1-4)GlcNAc(b1-4)]Man(a1-3)]Man(b1-4)GlcNAc(b1-4)[Fuc(a1-6)]GlcNAc
# Outline: as §1
# [18] = target: Gal(b1-4)GlcNAc(b1-3)Gal(b1-3)GalNAc
# Outline: as §1
# [19] = target: Gal(b1-4)GlcNAc(b1-3)Gal(b1-3)GlcNAc
# Outline: as §1
binder,measurement,setting,value
B1,glycan array binding signal (z-score),[1],1.81
same,glycan array binding signal (z-score),[2],-0.213
same,glycan array binding signal (z-score),[3],-1.22
same,glycan array binding signal (z-score),[4],-0.073
same,glycan array binding signal (z-score),[5],-0.555
same,glycan array binding signal (z-score),[6],1.67
same,glycan array binding signal (z-score),[7],0.216
same,glycan array binding signal (z-score),[8],-0.498
same,glycan array binding signal (z-score),[9],0.473
same,glycan array binding signal (z-score),[10],-0.519
same,glycan array binding signal (z-score),[11],0.027
same,glycan array binding signal (z-score),[12],-0.31
same,glycan array binding signal (z-score),[13],0.598
same,glycan array binding signal (z-score),[14],-0.418
same,glycan array binding signal (z-score),[15],-0.251
same,glycan array binding signal (z-score),[16],-0.581
same,glycan array binding signal (z-score),[17],-0.574
same,glycan array binding signal (z-score),[18],-0.492
same,glycan array binding signal (z-score),[19],0.173

# As a short view, some entries already given:
binder,measurement,setting,value
B1,glycan array binding signal (z-score),[1],1.81
same,glycan array binding signal (z-score),[2],-0.213
